For the assay, the target named is T1, Flag-C9orf72 (long isoform) (human) (UniProt Q96LT7).
T1 sequence: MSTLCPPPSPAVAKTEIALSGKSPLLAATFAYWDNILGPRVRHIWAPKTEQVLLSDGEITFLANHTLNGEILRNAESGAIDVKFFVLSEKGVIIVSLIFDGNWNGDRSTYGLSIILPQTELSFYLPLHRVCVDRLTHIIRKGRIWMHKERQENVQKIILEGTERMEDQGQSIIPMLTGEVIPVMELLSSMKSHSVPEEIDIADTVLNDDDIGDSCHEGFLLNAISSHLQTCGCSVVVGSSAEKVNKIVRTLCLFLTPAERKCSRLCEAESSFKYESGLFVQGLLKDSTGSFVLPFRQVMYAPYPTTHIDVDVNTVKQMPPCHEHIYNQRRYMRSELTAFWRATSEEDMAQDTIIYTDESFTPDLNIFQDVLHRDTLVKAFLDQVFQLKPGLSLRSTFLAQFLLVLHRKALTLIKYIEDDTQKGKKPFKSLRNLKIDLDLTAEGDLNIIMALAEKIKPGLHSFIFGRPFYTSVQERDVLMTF
The experiment in a line: co-IP; HEK-293T cells co-transfected with Flag-C9orf72 and HA tagged eIF2α wild type, S51A or S51D.

Results are given in words; binding and its absence hold for the method and conditions named. Binding seen in cells or lysates may run through a third protein. A result given as binding can be weak or reduced; the word gives no strength. Sequences can lack the tags named with a protein.

As to HA tagged phosphomimetic eIF2α (S51D), the binding result is recorded as “binds”.

Consider “HA tagged nonphosphorylatable eIF2α (S51A)”, for which the binding entry was “binds”.

The record behind these values is article PMC9691347, “C9orf72 regulates the unfolded protein response and stress granule formation by interacting with eIF2α” (Theranostics, 2022).
